This is an account of results in article PMC3325215.

The target in assay [1] is T1, GFP-VIP3 fusion protein (VERNALIZATION … 3, At4g29830) (Arabidopsis thaliana) (UniProt Q9SZQ5).
T1 sequence: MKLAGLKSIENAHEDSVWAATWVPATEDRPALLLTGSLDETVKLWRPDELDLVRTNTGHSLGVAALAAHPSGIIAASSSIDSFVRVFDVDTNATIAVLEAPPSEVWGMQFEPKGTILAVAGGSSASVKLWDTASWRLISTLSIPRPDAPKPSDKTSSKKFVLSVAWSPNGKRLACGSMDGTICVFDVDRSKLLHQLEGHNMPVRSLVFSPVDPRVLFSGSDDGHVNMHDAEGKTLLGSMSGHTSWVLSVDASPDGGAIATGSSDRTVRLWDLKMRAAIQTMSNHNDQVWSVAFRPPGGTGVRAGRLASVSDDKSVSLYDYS
As to the kind of experiment: affinity purification with mass spectrometry; direct immunoprecipitation with anti-GFP beads from total protein extract of GFP-VIP3 plants, same conditions, no prior gel filtration.

In assay [2] the target is T1, GFP-VIP3 fusion protein (VERNALIZATION … 3, At4g29830) (Arabidopsis thaliana). As to the kind of experiment: affinity purification with mass spectrometry; protein extract of 35S::GFP-VIP3 plants fractionated by gel filtration (Superdex 200); pooled smaller (100-200 kDa) fractions incubated 90 min at 4°C with anti-GFP magnetic beads, washed 5 times with protein extraction buffer; stringent conditions.

Results are given in words; binding and its absence hold for the method and conditions named. In cells and extracts the contact can be indirect. These calls come from enrichment with a bait or labelling near it, and not all partners need be listed. Tags and fused reporters may be left off the sequences shown.

B1: AtSKI3 (At1g76630), Arabidopsis SKI3 homolog (protein, UniProt F4I3Z5 1-1168)
chain: MELEQLKKSVEENPDDSSLQFELGLYLWDNGGDSEKAAEHFVLSAKSDPNNAVAFKYLGHYYSRVTLDLNRAAKCYQRAVLINPNDSDSGEALCDLFDRQGKEILEIAVCRDASEKSPKAFWAFCRLGYIQLHQKKWSEAVQSLQHAIRGYPTMSDLWEALGLAYQRLGMFTAAIKAYGRAIELDETKIFALVESANIFLMLGSYRKGVELFEQALKISPQNISVLYGLASGLLSWSKECINLGAFGWAASLLEDARKAAKASSELASSMSCIWKLHGDIQLTYARCFPWSGGTENSEFTLKTFSDSILSWRSICYSAALSAKASYQRALHLAPWQANVYTDIAITCDLVSSLSDDSDTSSSWKLPEKMVLGALLLECENSEFWVALGCMSDNSALKLHALIRALHLDVSLAVAWAFMGQIFRESDEMKFAKQAFDCARSIDPTLALPWAGSADTYARESTSDEAFESCLRAAQISPLAEFQVGLAWLALLQGNISSPQIFACIEQAVQRSPYYPEPHNLHGLVCEARHNYHTAIASYRLALAAMSIYPESSVKSHAGKVSINLVRSLSKAGRFKESVMECANLKSKGLLDAGGLQIYAFSLWRTGQNDSALSVIRDLAGRISTREKTSIAFPISFICSLLYCISGLDSAITSIQKMPKDFFQSSKISFIVSAIHSLDQSDRLQSIVASTRSYITSQEEIVAMHYLIALSKLLKTGAGDFLGYEKGIAHLSKAIHMYPHSNLIRNLLGYILLAGEGMKDACTASRCCIINVSECANKEGLKSALEVLGGGSVACNVIGNTAPRFSFPTCHCQYLNAPVVVVELQRFLHQEPSNSSVRYLLILNLVQKAREQRFPRQLCRAIERLISVALSDETCSKEGEYKKFQLLLCASEISLQMGNIAESINHARKASSLSLPSSYLFLGHLQLCRAYAANGSTKNMQEEYRACLELKTDSNIGWICLKLIESQYNLEPDANLLEMSLQECSSQKKNSWKEWMAVYSLARGLDSTGKKDFFSAEEFLAQACSLLNSESCLLLCHGAVCMELARQSNDSQFLSLAVKSLSKVQASSLFPLPIVYTLLAQAHGSLGSKEKWEKNLRLEWFCWPPEMRPAEVYFQMHILARQSEDRPETTSGIENYQSPEKWVIRAIHTDPSCRRYWKVLDKLVQHPMS
Regarding B1, the binding result in assay [1] and in assay [2] was “binds” each time.
